According to paper PMC8106682:
These are yes or no findings as the source states them, for the method shown. Binding seen in cells or lysates may run through a third protein. Some results given as binding are weak or reduced against the parent protein; the word gives no strength.

Protein sequences, listed by entry. Tags and fused reporters are not part of them.
UniProt Q15910: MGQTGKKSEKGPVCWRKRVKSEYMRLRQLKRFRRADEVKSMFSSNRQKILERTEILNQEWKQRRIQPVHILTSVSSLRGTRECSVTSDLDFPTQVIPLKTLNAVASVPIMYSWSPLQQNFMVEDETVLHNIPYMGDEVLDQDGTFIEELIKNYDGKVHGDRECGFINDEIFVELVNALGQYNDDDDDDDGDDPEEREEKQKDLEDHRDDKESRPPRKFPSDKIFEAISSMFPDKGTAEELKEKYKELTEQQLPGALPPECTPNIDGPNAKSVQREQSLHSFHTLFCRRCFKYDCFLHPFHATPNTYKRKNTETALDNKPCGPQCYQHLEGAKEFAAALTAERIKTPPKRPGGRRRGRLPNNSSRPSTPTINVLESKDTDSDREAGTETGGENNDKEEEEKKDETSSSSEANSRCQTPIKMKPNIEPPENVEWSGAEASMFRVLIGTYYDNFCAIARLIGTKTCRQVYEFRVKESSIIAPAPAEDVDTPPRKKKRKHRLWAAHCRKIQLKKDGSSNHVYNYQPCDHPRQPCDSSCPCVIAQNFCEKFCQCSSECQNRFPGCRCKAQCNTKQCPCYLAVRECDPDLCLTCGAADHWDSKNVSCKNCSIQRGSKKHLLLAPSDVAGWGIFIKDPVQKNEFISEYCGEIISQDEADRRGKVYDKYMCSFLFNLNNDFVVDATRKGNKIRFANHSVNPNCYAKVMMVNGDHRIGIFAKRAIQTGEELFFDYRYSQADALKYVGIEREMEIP
UniProt Q14258: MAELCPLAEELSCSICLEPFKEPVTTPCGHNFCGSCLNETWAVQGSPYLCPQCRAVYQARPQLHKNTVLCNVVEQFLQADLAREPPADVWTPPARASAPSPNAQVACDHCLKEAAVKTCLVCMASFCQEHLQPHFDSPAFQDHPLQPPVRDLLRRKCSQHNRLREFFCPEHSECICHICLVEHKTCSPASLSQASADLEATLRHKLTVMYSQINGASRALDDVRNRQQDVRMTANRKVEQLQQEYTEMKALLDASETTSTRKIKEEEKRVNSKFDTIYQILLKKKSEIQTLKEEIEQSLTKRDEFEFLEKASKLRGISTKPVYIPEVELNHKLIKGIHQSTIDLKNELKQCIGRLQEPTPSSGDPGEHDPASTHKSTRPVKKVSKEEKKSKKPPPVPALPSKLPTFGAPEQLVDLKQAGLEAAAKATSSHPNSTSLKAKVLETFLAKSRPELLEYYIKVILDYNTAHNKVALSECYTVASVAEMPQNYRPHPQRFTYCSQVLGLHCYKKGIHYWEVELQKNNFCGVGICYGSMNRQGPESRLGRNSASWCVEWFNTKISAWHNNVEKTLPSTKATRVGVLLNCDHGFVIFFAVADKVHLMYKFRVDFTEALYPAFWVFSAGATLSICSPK

Legend:
Flag-EZH2 = Flag-EZH2 (UniProt Q15910); assay: co-IP; HEK293T cells co-transfected with Flag-EZH2 and HA-TRIM25; NP-40 lysate, anti-Flag or anti-HA antibodies, protein A/G beads, immunoblot
[1] = biological target: Enhancer of zeste 2 polycomb repressive complex 2 subunit (EZH2), endogenous (human (endogenous in SW480)) (UniProt Q15910); assay: co-IP; endogenous proteins in SW480 lysate (NP-40 lysis buffer, 4°C); anti-TRIM25 or anti-EZH2 antibodies overnight, protein A/G beads, immunoblot; for TRAF6: anti-EZH2 IP (IgG control) from cells transfected with siNC or siTRIM25

Row | binding (Flag-EZH2) | binding [1] | Substance
1 | binds | – | HA-TRIM25 (from UniProt Q14258 1-630)
2 | – | binds | Tripartite motif containing 25 (TRIM25), endogenous (from UniProt Q14258 1-630)
